PubChem BioAssay AID493014 (National Center for Advancing Translational Sciences (NCATS), 2011)
Some of the results follow. The main result of the screen is listed elsewhere. These columns were measured beside it and carry no call. Compounds called inactive in the main read-out are mostly missing here. The note in brackets gives the kind of curve behind each potency; many fits are weak.

Test: qHTS Assay to Find Inhibitors of Chronic Active B-Cell Receptor Signaling
Details: ABC-DLBCL IkBa-CBG/CBR reporter, luminescence ratio (green luciferase fused to IkBa over red control in TMD8 lymphoma cells), 4 h; measured here: CBR red luminescence, cell number
Outline: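 Doxycycline induced both beetle luciferases in TMD8 lymphoma cells; IKK-driven degradation limits the IkappaBalpha-fused green signal, while red luminescence normalises for cell number and nonspecific effects. Compounds tested up to 46 uM, 4 hrs.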

Compound | AC50
O=C(Nc1ccccc1)Nc1ccc(F)cc1F | 25.1 µM [falling, single point]
Cc1nc2ccccn2c1C(=O)N/N=C/c1ccc(CNC(=O)C(=O)Nc2ccccc2)o1 | 8.2 µM [falling, partial curve, poor fit]
CCN1CCN(Cc2ccc(NC(=O)c3cc(NC(=O)c4cnn(-c5ccccc5)c4N)cc(OC)c3)cc2C(F)(F)F)CC1 | 12.6 µM [falling, partial curve]
O=[N+]([O-])c1ccc(NC(=S)N2CCOCC2)cc1 | 0.58 µM [rising, full curve, poor fit]
CCN(CC)C(=O)Cn1cc(S(=O)(=O)CC(=O)Nc2ccc3c(c2)OCCO3)c2ccccc21 | 35.5 µM [falling, single point]
Cc1c(/C=N/NC(=O)c2ccccc2O)c2ccccn2c1C(=O)c1ccc(F)cc1 | 20.6 µM [falling, partial curve]
COc1cccc(NC(=S)N2CCn3c(nc4ccccc43)C2)c1 | 20 µM [falling, partial curve, poor fit]
O=C(CCc1ccccc1)Nc1ccccc1F | 11.6 µM [falling, partial curve]
CCc1c(C)[nH]n(-c2nc(-c3cccc([N+](=O)[O-])c3)cs2)c1=O | 32.6 µM [falling, single point]
O=C1/C(=N\S(=O)(=O)c2cccs2)C([n+]2ccccc2)=C([O-])c2ccccc21 | 1.41 µM [falling, full curve, poor fit]
COc1cc(C(=O)Nc2c(-c3ccccn3)c(=O)c3ccccc3n2C)cc(OC)c1OC | 6.31 µM [rising, full curve, poor fit]
CCOC(=O)COn1c2c(c3c4no[n+]([O-])c4ccc31)CCCC2 | 25.9 µM [falling, partial curve, poor fit]
COc1ccc(C(=O)NCC(=O)N2CCc3ccccc3C2)cc1 | 14.1 µM [rising, partial curve, poor fit]
COc1cccc(C(=O)Nc2ccc(C(=O)O)cc2)c1 | 12.6 µM [falling, partial curve, poor fit]
N#C/C(=C\c1ccc(C(=O)O)cc1)c1nc2sc3c(c2c(=O)[nH]1)CCCC3 | 11.2 µM [falling, partial curve]
COc1ccc(CCNC(=O)CSc2nc3[nH]ncc3c(=O)n2-c2ccc(C)c(Cl)c2)cc1OC | 35.5 µM [falling, single point]
CC1=C(C(=O)Nc2ccc(C(=O)NC(C)c3ccccc3)cc2)SCCO1 (configuration not stated) | 5.62 µM [falling, partial curve, poor fit]
N#Cc1nc(COc2cccc(Cl)c2)oc1NCc1ccncc1 | 10 µM [falling, partial curve, poor fit]
COc1cc(CC(=O)NCC2COc3ccccc3O2)cc(OC)c1OC (configuration not stated) | 3.16 µM [rising, single point]
CC(=O)Nc1ccc(S(=O)(=O)NCCS(=O)(=O)N2CCN(c3ccccc3F)CC2)cc1 | 3.55 µM [rising, full curve, poor fit]
CC(=O)c1ccc(N=Nc2ccc(C)cc2)cc1 | 1.58 µM [rising, partial curve, poor fit]

Taken from above:
AC50 with `CCN1CCN(Cc2ccc(NC(=O)c3cc(NC(=O)c4cnn(-c5ccccc5)c4N)cc(OC)c3)cc2C(F)(F)F)CC1` reads 12.6 µM [falling, partial curve]
AC50 with `CCc1c(C)[nH]n(-c2nc(-c3cccc([N+](=O)[O-])c3)cs2)c1=O` reads 32.6 µM [falling, single point]

Carrying on.

Compound | AC50
COc1cc(COCC(O)CN2CCCCC2C)cc(OC)c1OC (configuration not stated) | 12.6 µM [rising, single point]
Cc1ccc2c(CC(=O)NCc3cccs3)coc2c1 | 29.1 µM [falling, single point]
Cc1cccc(N(Cc2cc(=O)[nH]c3ccccc23)C(=O)CCl)c1 | 10 µM [falling, partial curve]
CC(NC(=O)c1ccccc1NS(=O)(=O)c1ccc(CCC(=O)O)cc1)c1ccccc1 (configuration not stated) | 3.55 µM [rising, partial curve, poor fit]
Cn1c(=O)n(Cc2ccccc2F)c(=O)c2c1nc1n2CCN1Cc1ccco1 | 3.98 µM [falling, single point]
CCCCCCCSc1nsc(N)n1 | 23.1 µM [rising, partial curve, poor fit]
O=C(NNc1c2ccccc2nc2ccccc12)c1cc2ccccc2cc1O | 6.51 µM [rising, partial curve, poor fit]
CCc1noc(C)c1C(=O)Nc1cc(S(=O)(=O)N2CCOCC2)ccc1OC(C)C | 6.51 µM [rising, single point]
COc1ccc2c(c1OC)C(=O)NC(C)=C(C(=O)OC(C)(C)C)C2O (configuration not stated) | 0.708 µM [falling, full curve]
OCCCNc1cc(-c2ccnc(Nc3cccc(Cl)c3)n2)ccn1 | 0.282 µM [falling, full curve, poor fit]
Cn1c(=O)n(C)c2cc([N+](=O)[O-])c(N3CCN(S(C)(=O)=O)CC3)cc21 | 5.17 µM [rising, full curve, poor fit]
COc1ccc(NC(=O)/C(C#N)=C\c2ccc(OCc3ccc(C(=O)O)cc3)c(OC)c2)cc1 | 2.51 µM [falling, full curve]
O=C(COc1ccccc1Cl)NNC(=O)Cn1[nH]c(=O)c2ccccc2c1=O | 20.6 µM [rising, single point]
CC(=O)C1=C(O)C(=O)N(c2ccc(Br)cn2)C1c1ccc(F)cc1 (configuration not stated) | 11.2 µM [falling, partial curve]
O=C(OCc1cc(=O)n2c(n1)sc1ccccc12)c1ccc(O)cc1O | 1.26 µM [rising, full curve, poor fit]
Cc1ccc(F)c(NC=C2C(=O)OC(C)(C)OC2=O)c1 | 35.5 µM [rising, partial curve, poor fit]
CSCCC(NC(=O)c1ccc(C(C)(C)C)cc1)C(=O)O (configuration not stated) | 6.31 µM [rising, single point]
Cc1cc(C(=O)N/N=C/c2cc(Cl)cc([N+](=O)[O-])c2O)n[nH]1 | 5.62 µM [falling, single point]
O=C(COC(=O)c1ccc(Br)o1)Nc1ccc2c(c1)OCCO2 | 9.2 µM [rising, partial curve, poor fit]
O=c1[nH]c(C2CCN(S(=O)(=O)c3ccccc3C(F)(F)F)CC2)nc2c1nnn2Cc1cccc(F)c1 | 22.4 µM [falling, single point]
COc1ccc(CCNC2CC(=O)N(CCc3ccc(OC)c(OC)c3)C2=O)cc1OC (configuration not stated) | 7.31 µM [falling, partial curve, poor fit]

Compound | AC50
O=C(NCCc1ccccc1)Nc1ccc2c(c1)OCO2 | 15.8 µM [falling, single point]
N#C/C(=C\c1ccc(N2CCOCC2)o1)c1nc2ccccc2[nH]1 | 35.5 µM [falling, partial curve, poor fit]
CC(=O)c1ccc(OCCCC(=O)NC2CCCc3ccccc32)cc1 (configuration not stated) | 13 µM [rising, partial curve, poor fit]
Clc1ccc(-c2nnc(C3CC3)o2)cc1 | 20 µM [rising, single point]
O=C(CNC(=O)c1ccccc1)NCCc1ccc(O)c(O)c1 | 11.2 µM [falling, partial curve, poor fit]
CSCC[C@H](NC(=O)[C@@H]1Cc2ccccc2CN1)C(=O)Nc1ccc2c(c1)OCCO2 | 11.2 µM [falling, partial curve]
COc1cccc(OC)c1CN1CCCC(C(=O)c2ccccc2SC)C1 (configuration not stated) | 35.5 µM [falling, single point]
CC1(C)CC(NC(=O)c2ccccc2F)CC(C)(C)N1 | 35.5 µM [falling, partial curve, poor fit]
C=CCn1c(=O)c(C(=O)Nc2ccccc2C(=O)OCC)c(O)c2ccccc21 | 1.46 µM [rising, full curve, poor fit]
CCCCCCC(C)OC(=O)Nc1cccc2ccccc12 (configuration not stated) | 10 µM [falling, single point]
COCCn1c(SC(C)C(=O)Nc2ccc3c(c2)OCCO3)nc2ccccc2c1=O (configuration not stated) | 3.16 µM [falling, full curve, poor fit]
CCN(CC)CC(=O)Nc1ccc2c(c1)N(C(=O)CN(CC)CC)c1ccccc1CC2 | 11.6 µM [falling, partial curve, poor fit]
Cc1ccc(-c2cn3c(=O)cc(C)[nH]c3n2)cc1 | 2.51 µM [falling, full curve]
O=C(C1=C[C@@H]2[C@H]3C(=O)N(c4ccccc4)C(=O)[C@H]3[C@@H](C(=O)c3ccc(Cl)cc3)N2C=C1)c1ccccc1 | 8.2 µM [falling, partial curve]
Cc1ccc(NC(=O)c2cc3c(s2)CCCC3)cc1S(=O)(=O)Nc1ccccc1Cl | 23.1 µM [falling, partial curve, poor fit]
Cc1cccc(NC(=S)NC(=O)/C=C/c2ccco2)n1 | 20.6 µM [falling, partial curve, poor fit]
COc1ccc(C(=O)NCC(=O)N/N=C/C(C)=C/c2ccco2)cc1OC | 0.092 µM [rising, full curve, poor fit]
O=C(CO/N=C/c1ccc(Cl)cc1Cl)NNC(=O)c1cccc(Cl)c1 | 15.8 µM [rising, single point]
COc1ccc(N(CC(=O)Nc2ccc(F)c(F)c2)S(=O)(=O)c2c(C)n[nH]c2C)cc1 | 35.5 µM [falling, single point]
O=C(Nc1ccccc1)/C(=C/c1cccc(Br)c1)NC(=O)c1ccco1 | 1.16 µM [rising, full curve]
